Source: the supplement of paper PMC4604168 (melanoma cell lines)
The list shows a part of the results. Repeats are few or missing, and single values can be far off.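 The apoptosis fraction was the count of cleaved-PARP antibody-stained nuclei relative to all DNA-stained nuclei, imaged in 1,536-well plates. Screening doses were set so most cells survived, and baseline and induced cleaved-PARP levels vary greatly across cell lines.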

Assays:
Assay in all cases: cleaved PARP positive nuclei fraction relative to DMSO control; melanoma cells; higher = more apoptosis
Details in all cases: library dose: low library concentration; 72 h
[1] = test system: 501Mel
[2] = test system: A101D
[3] = test system: A2058
[4] = test system: A375
[5] = test system: C32
[6] = test system: CBRC008 (line from a melanoma biopsy)
[7] = test system: CBRC014 (line from a melanoma biopsy)
[8] = test system: CBRC016 (line from a melanoma biopsy)
[9] = test system: CBRC017 (line from a melanoma biopsy)
[10] = test system: CBRC034 (line from a melanoma biopsy)
[11] = test system: COLO792
[12] = test system: COLO800
[13] = test system: COLO829
[14] = test system: G361
[15] = test system: IPC-298
[16] = test system: IST-MEL1
[17] = test system: LB2518-MEL
[18] = test system: LOXIMVI
[19] = test system: MEL-HO

SMILES	cleaved PARP positive nuclei fraction [1] [%]	cleaved PARP positive nuclei fraction [2] [%]	cleaved PARP positive nuclei fraction [3] [%]	cleaved PARP positive nuclei fraction [4] [%]	cleaved PARP positive nuclei fraction [5] [%]	cleaved PARP positive nuclei fraction [6] [%]	cleaved PARP positive nuclei fraction [7] [%]	cleaved PARP positive nuclei fraction [8] [%]	cleaved PARP positive nuclei fraction [9] [%]	cleaved PARP positive nuclei fraction [10] [%]	cleaved PARP positive nuclei fraction [11] [%]	cleaved PARP positive nuclei fraction [12] [%]	cleaved PARP positive nuclei fraction [13] [%]	cleaved PARP positive nuclei fraction [14] [%]	cleaved PARP positive nuclei fraction [15] [%]	cleaved PARP positive nuclei fraction [16] [%]	cleaved PARP positive nuclei fraction [17] [%]	cleaved PARP positive nuclei fraction [18] [%]	cleaved PARP positive nuclei fraction [19] [%]
CC(C)C[C@H](NC(=O)[C@H](Cc1ccccc1)NC(=O)c1cnccn1)B(O)O [Bortezomib] + Nc1cccc2c1CN(C1CCC(=O)NC1=O)C2=O [lenalidomide] (first compound 0.001 µM, partner dose 1 µM)	169	473	76.7	84.3	74.8	536	765	305	652	383	69.7	64.5	185	4240	62.7	197	459	70.1	114
C[C@@H](Oc1cc(-c2cnn(C3CCNCC3)c2)cnc1N)c1c(Cl)ccc(F)c1Cl [Crizotinib] + C#Cc1cccc(Nc2ncnc3cc(OCCOC)c(OCCOC)cc23)c1 [erlotinib] (first compound 0.2 µM, partner dose 0.8 µM)	62.7	582	193	109	77.2	109	91.8	68.6	229	72.4	124	42.8	114	152	31.1	116	253	100	76.3
Nc1ccn([C@@H]2O[C@H](CO)[C@@H](O)C2(F)F)c(=O)n1 [gemcitabine] + c1cc(-c2cnn3cc(-c4ccc(OCCN5CCCCC5)cc4)cnc23)ccn1 [Dorsomorphin] (first compound 0.0004 µM, partner dose 0.4 µM)	68.1	27.6	119	–	58.7	51.2	139	58.4	141	–	165	149	91.9	98.1	132	83.4	41.9	108	–
O=C(O)[C@@H]1[O][Sb](=[O])([O][Sb]2(=[O])[O][C@H]([C@H](O)CO)[C@H](O)[C@H](C(=O)O)[O]2)[O][C@H]([C@H](O)CO)[C@@H]1O (stereo partly specified) [stibogluconate] + Oc1nc(-c2ccc(C(F)(F)F)cc2)nc2c1CSCC2 [XAV939] (first compound 2 µM, partner dose 2 µM)	62.7	27.4	70.8	–	88	88.7	76.3	40.5	79.1	–	25.5	133	75.4	126	223	75.1	68	127	–
O=C(O)c1ccc2c(c1)nc(Nc1cccc(Cl)c1)c1ccncc12 + Oc1nc(-c2ccc(C(F)(F)F)cc2)nc2c1CSCC2 [XAV939] (first compound 0.4 µM, partner dose 2 µM)	136	32.3	158	–	50.4	34.5	97.9	98.2	118	–	50.2	24.7	165	80.6	31.5	116	66.5	110	–
O=C(O)[C@@H]1[O][Sb](=[O])([O][Sb]2(=[O])[O][C@H]([C@H](O)CO)[C@H](O)[C@H](C(=O)O)[O]2)[O][C@H]([C@H](O)CO)[C@@H]1O (stereo partly specified) [stibogluconate] + CC(C)CCN1c2nc(Nc3cc(F)c(O)c(F)c3)ncc2N(C)C(=O)C1C [BID1870] (first compound 2 µM, partner dose 0.2 µM)	76.2	46	139	–	178	137	100	108	192	–	93.7	114	83.5	50	238	36.4	157	105	–
Nc1ccn([C@@H]2O[C@H](CO)[C@@H](O)C2(F)F)c(=O)n1 [gemcitabine] + O=S(=O)(c1ccccc1)N(CC(F)(F)F)c1ccc(C(O)(C(F)(F)F)C(F)(F)F)cc1 [T0901317] (first compound 0.0004 µM, partner dose 1.4 µM)	81.6	58.2	21.4	–	271	188	130	93.8	124	–	41.8	74	145	263	150	150	74.4	156	–
O=C(O)[C@@H]1[O][Sb](=[O])([O][Sb]2(=[O])[O][C@H]([C@H](O)CO)[C@H](O)[C@H](C(=O)O)[O]2)[O][C@H]([C@H](O)CO)[C@@H]1O (stereo partly specified) [stibogluconate] + O=C(O)C(=O)Nc1sc2c(c1C(=O)O)CCNC2 [TCS401] (first compound 2 µM, partner dose 1.66667 µM)	57.7	27	33.9	–	73.6	45	68.2	29.9	175	–	26.3	104	206	44.9	143	82.2	63.8	75.9	–
CCCS(=O)(=O)Nc1ccc(F)c(C(=O)c2c[nH]c3ncc(Cl)cc23)c1F + O=C1NC(=O)/C(=C/c2ccc(-c3ccc(F)cc3O)o2)S1 [AS252424] (first compound 0.08 µM, partner dose 1 µM)	43.3	33.2	148	–	106	216	113	40	87.5	–	87.1	66.3	157	147	133	229	132	85.8	–
CO[C@H]1C[C@@H]2CC[C@@H](C)[C@@](O)(O2)C(=O)C(=O)N2CCCC[C@H]2C(=O)O[C@H]([C@H](C)C[C@@H]2CC[C@@H](OCCO)[C@H](OC)C2)CC(=O)[C@H](C)/C=C(\C)[C@@H](O)[C@@H](OC)C(=O)[C@H](C)C[C@H](C)/C=C/C=C/C=C/1C [everolimus] + O=S(=O)(c1ccccc1)N(CC(F)(F)F)c1ccc(C(O)(C(F)(F)F)C(F)(F)F)cc1 [T0901317] (first compound 0.02 µM, partner dose 1.4 µM)	284	33.5	83.1	–	71.5	226	93.9	88.8	110	–	67.9	95.7	217	151	136	112	87.5	108	–
O=C(O)c1ccc2c(c1)nc(Nc1cccc(Cl)c1)c1ccncc12 + CCCS(=O)(=O)Nc1ccc(F)c(C(=O)c2c[nH]c3ncc(Cl)cc23)c1F [PLX4720] (first compound 0.4 µM, partner dose 0.08 µM)	86.2	106	123	190	399	113	114	216	158	76	94.8	95.8	105	129	134	191	45.2	42	208
CS(=O)(=O)CCNCc1ccc(-c2ccc3ncnc(Nc4ccc(OCc5cccc(F)c5)c(Cl)c4)c3c2)o1 [lapatinib] + COc1cc2ncnc(Nc3ccc(Oc4ccccc4)cc3)c2cc1OC [SrcI1] (first compound 0.8 µM, partner dose 2 µM)	26.5	24.9	157	–	67.7	140	85.5	60.2	94.9	–	79.8	35.4	102	131	76.5	74.7	24.7	159	–
Nc1nc(F)nc2c1ncn2[C@@H]1O[C@H](CO)[C@@H](O)[C@@H]1O [fludarabine] + c1cc(-c2cnn3cc(-c4ccc(OCCN5CCCCC5)cc4)cnc23)ccn1 [Dorsomorphin] (first compound 0.2 µM, partner dose 0.4 µM)	2790	20.9	91.3	–	101	65.4	193	16.7	78.2	–	225	111	72.8	145	99	197	50.1	135	–
CO[C@H]1C[C@@H]2CC[C@@H](C)[C@@](O)(O2)C(=O)C(=O)N2CCCC[C@H]2C(=O)O[C@H]([C@H](C)C[C@@H]2CC[C@@H](OCCO)[C@H](OC)C2)CC(=O)[C@H](C)/C=C(\C)[C@@H](O)[C@@H](OC)C(=O)[C@H](C)C[C@H](C)/C=C/C=C/C=C/1C [everolimus] + O=c1cc(-c2cccc3c2Sc2ccccc2S3)oc(N2CCOCC2)c1 [KU55933] (first compound 0.02 µM, partner dose 1 µM)	94.1	8.72	124	–	126	265	178	444	105	–	130	120	78.7	236	175	46.5	82.1	459	–
CNC(=O)c1cc(Oc2ccc(NC(=O)Nc3ccc(Cl)c(C(F)(F)F)c3)cc2)ccn1 [sorafenib] + CCCCCCCCCCCC1=C(O)C(=O)C=C(O)C1=O [Embelin] (first compound 0.4 µM, partner dose 1.2 µM)	64.4	12.6	83.1	–	141	80.3	79.8	112	92.4	–	90.9	130	35.4	78.9	45.3	113	102	61.3	–
Nc1nc(F)nc2c1ncn2[C@@H]1O[C@H](CO)[C@@H](O)[C@@H]1O [fludarabine] + N#Cc1c(O)c2c(-c3ccc(-c4ccccc4O)cc3)csc2[nH]c1=O [A769662] (first compound 0.2 µM, partner dose 2 µM)	889	45.1	64.2	–	40.9	154	92.8	145	90.6	–	203	50.4	62.5	108	142	126	72.5	81.5	–
Cn1c(=O)n(-c2ccc(C(C)(C)C#N)cc2)c2c3cc(-c4cnc5ccccc5c4)ccc3ncc21 + N#Cc1c(O)c2c(-c3ccc(-c4ccccc4O)cc3)csc2[nH]c1=O [A769662] (first compound 0.004 µM, partner dose 2 µM)	151	52.5	90.8	–	92.7	94.8	97.3	48.4	94.7	–	139	110	83.7	112	109	319	47	129	–

No new results follow: an excerpt of the list.
SMILES	cleaved PARP positive nuclei fraction [1] [%]	cleaved PARP positive nuclei fraction [2] [%]	cleaved PARP positive nuclei fraction [3] [%]	cleaved PARP positive nuclei fraction [4] [%]	cleaved PARP positive nuclei fraction [5] [%]	cleaved PARP positive nuclei fraction [6] [%]	cleaved PARP positive nuclei fraction [7] [%]	cleaved PARP positive nuclei fraction [8] [%]	cleaved PARP positive nuclei fraction [9] [%]	cleaved PARP positive nuclei fraction [10] [%]	cleaved PARP positive nuclei fraction [11] [%]	cleaved PARP positive nuclei fraction [12] [%]	cleaved PARP positive nuclei fraction [13] [%]	cleaved PARP positive nuclei fraction [14] [%]	cleaved PARP positive nuclei fraction [15] [%]	cleaved PARP positive nuclei fraction [16] [%]	cleaved PARP positive nuclei fraction [17] [%]	cleaved PARP positive nuclei fraction [18] [%]	cleaved PARP positive nuclei fraction [19] [%]
CO[C@H]1C[C@@H]2CC[C@@H](C)[C@@](O)(O2)C(=O)C(=O)N2CCCC[C@H]2C(=O)O[C@H]([C@H](C)C[C@@H]2CC[C@@H](OCCO)[C@H](OC)C2)CC(=O)[C@H](C)/C=C(\C)[C@@H](O)[C@@H](OC)C(=O)[C@H](C)C[C@H](C)/C=C/C=C/C=C/1C [everolimus] + O=S(=O)(c1ccccc1)N(CC(F)(F)F)c1ccc(C(O)(C(F)(F)F)C(F)(F)F)cc1 [T0901317] (first compound 0.02 µM, partner dose 1.4 µM)	284	33.5	83.1	–	71.5	226	93.9	88.8	110	–	67.9	95.7	217	151	136	112	87.5	108	–
O=C(O)c1ccc2c(c1)nc(Nc1cccc(Cl)c1)c1ccncc12 + CCCS(=O)(=O)Nc1ccc(F)c(C(=O)c2c[nH]c3ncc(Cl)cc23)c1F [PLX4720] (first compound 0.4 µM, partner dose 0.08 µM)	86.2	106	123	190	399	113	114	216	158	76	94.8	95.8	105	129	134	191	45.2	42	208
CS(=O)(=O)CCNCc1ccc(-c2ccc3ncnc(Nc4ccc(OCc5cccc(F)c5)c(Cl)c4)c3c2)o1 [lapatinib] + COc1cc2ncnc(Nc3ccc(Oc4ccccc4)cc3)c2cc1OC [SrcI1] (first compound 0.8 µM, partner dose 2 µM)	26.5	24.9	157	–	67.7	140	85.5	60.2	94.9	–	79.8	35.4	102	131	76.5	74.7	24.7	159	–
Nc1nc(F)nc2c1ncn2[C@@H]1O[C@H](CO)[C@@H](O)[C@@H]1O [fludarabine] + c1cc(-c2cnn3cc(-c4ccc(OCCN5CCCCC5)cc4)cnc23)ccn1 [Dorsomorphin] (first compound 0.2 µM, partner dose 0.4 µM)	2790	20.9	91.3	–	101	65.4	193	16.7	78.2	–	225	111	72.8	145	99	197	50.1	135	–
